Assay results as given in patent EP1591456A1 (Genentech Inc., dated 2005).
No constants are given. Whether binding was seen depends on the method and setting. Some results given as binding are weak or reduced against the parent protein; the word gives no strength.

Columns and labels:
[1] = molecular target: DAF (immunoaffinity purified, detected by western blot) (UniProt P08174); experiment: immunoaffinity purification followed by western blotting with anti-DAF antibody IA10
recombinant human DAF = molecular target: T1, recombinant human DAF (human, UniProt P08174 35-353, limits assumed); experiment: flow cytometry competition on 1264 cells, soluble recombinant human DAF as competitor
T1 construct: also called recombinant human decay accelerating factor; CD55
T1 sequence (looked up): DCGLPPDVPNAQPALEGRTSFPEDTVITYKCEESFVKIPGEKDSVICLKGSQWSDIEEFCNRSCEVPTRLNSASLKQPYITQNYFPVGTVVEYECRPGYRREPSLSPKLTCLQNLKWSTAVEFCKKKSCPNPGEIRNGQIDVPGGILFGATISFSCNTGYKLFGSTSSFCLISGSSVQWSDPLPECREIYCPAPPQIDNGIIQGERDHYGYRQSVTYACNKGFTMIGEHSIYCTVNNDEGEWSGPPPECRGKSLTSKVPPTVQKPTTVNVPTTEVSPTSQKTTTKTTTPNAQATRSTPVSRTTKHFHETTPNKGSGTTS

B1: LU13 scFv fragment (scFv, V domains shown)
VH: QVQLQESGGNLVQPGGSLRLSCAASGFTFSSYAMSWVRQAPGKGLEWVSAISGSGGNTYYADSVKGRFTISRDNSKNTLYLQMNTLRAEDTAVYYCARRASYDYWGQGTMVTVSS
VL: QSVLTQPASVSGSPGQSITVSCTGTSSDVGGYNYVSWYQQHPGKAPKLMIYEGSKRPSGVSNRFSGSKSGNTASLTISGLQAEDEADYYCSSYTTRSTRVFGGGTKLTVL
With B1 the binding [1] was “binds”.

B2: LU30 scFv fragment (scFv, V domains shown)
VH: QVKLQESGGGLVQPGGSLKLSCAASGFTFSGYGMSWIRQTPDKRLEWVATINSGGSYTYYSDSVKGRFTISRDNVKNTLYLQMSSLKSEDTAMYYCARRNGTLYYYLMDYWGRGTLVTVSS
VL: QSVLTQPPSASGSPGQSVTISCTGTSSDVGGYNYVSWYQQHPGKAPKFMIYDVSKRPSGVSNRFSGSKSGNTASLTISGVQAEDEADYYCSSYTSASTVIFGGGTKLTVL
notes: Human scFv from a naive phage library (Vaughan et al.), secreted from E. coli and purified by its His tag; The full scFv is said to be under GenBank AF117206; also called clone LU30
For B2, the binding (recombinant human DAF) was “binds”.

B3: LU20 scFv fragment (scFv, V domains shown)
VH: EVQLVETGGGLVQPGRSLRLSCAASGFTFEDYGMHWVRQAPGKGLEWVSGINWNGGSTGYADSVKGRFTISRDNAKNSLYLQMNSLRAEDTALYYCARDAPSGSYGYWFDPWGQGTLVTVSS
VL: DIQMTQSPSTLSASIGDRVTITCRASEGIYHWLAWYQQKPGKAPKLLIYKASSLASGAPSRFSGSGSGTDFTLTISSLQPDDFATYYCQQYSNYPLTFGGGTKLEIK
For B3, the binding [1] was “binds”.
